Assay results: doi:10.1101/2019.12.23.887547
No constants are given. Whether binding was seen depends on the method and setting. For part of these data: Binding seen in cells or lysates may run through a third protein. Some results given as binding are weak or reduced against the parent protein; the word gives no strength. For part of these data: Sequences can lack the tags named with a protein.

Amino acid sequences for entries named in this document (tags omitted). A change or cut given only in a name is not applied to a line headed by its entry. Residues count along the entry.
UniProt Q13185: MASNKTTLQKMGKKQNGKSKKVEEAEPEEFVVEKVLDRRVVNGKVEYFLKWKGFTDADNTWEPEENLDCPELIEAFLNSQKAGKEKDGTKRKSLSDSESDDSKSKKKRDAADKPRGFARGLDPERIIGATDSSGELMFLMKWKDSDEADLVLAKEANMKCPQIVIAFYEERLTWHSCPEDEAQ
UniProt P45973: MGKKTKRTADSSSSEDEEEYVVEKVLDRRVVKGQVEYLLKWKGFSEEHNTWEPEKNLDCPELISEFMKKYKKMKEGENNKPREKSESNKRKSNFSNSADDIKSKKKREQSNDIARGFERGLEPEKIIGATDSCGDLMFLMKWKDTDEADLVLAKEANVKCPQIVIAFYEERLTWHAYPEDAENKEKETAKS
UniProt P83916: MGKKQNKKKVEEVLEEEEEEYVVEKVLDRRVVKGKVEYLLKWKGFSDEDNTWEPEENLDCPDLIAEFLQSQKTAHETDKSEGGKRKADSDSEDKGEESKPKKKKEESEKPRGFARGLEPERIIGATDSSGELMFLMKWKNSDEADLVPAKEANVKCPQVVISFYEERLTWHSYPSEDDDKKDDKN
UniProt O95931: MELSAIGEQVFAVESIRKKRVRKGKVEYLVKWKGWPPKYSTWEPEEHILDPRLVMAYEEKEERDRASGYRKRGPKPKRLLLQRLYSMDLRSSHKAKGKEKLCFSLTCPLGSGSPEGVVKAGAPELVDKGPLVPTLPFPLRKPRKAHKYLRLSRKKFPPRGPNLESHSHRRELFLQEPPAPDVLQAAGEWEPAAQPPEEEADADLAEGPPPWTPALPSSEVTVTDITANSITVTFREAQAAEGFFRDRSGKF
UniProt Q99496: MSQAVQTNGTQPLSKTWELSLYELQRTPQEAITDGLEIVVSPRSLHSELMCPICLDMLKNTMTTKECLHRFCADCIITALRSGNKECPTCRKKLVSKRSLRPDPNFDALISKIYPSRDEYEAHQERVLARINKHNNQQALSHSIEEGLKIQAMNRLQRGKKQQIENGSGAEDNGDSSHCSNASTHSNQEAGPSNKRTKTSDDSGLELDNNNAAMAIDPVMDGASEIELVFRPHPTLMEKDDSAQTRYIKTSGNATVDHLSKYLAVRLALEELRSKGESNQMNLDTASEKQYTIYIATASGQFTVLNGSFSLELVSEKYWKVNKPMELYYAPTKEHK
GST-RING1B amino acids 1-100: residues 1-100 of Q99496
GST-RING1B amino acids 101-200: residues 101-200 of Q99496
UniProt O75530, residues 142-200: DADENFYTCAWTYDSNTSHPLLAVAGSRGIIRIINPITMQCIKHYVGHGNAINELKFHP
UniProt Q8IZL8: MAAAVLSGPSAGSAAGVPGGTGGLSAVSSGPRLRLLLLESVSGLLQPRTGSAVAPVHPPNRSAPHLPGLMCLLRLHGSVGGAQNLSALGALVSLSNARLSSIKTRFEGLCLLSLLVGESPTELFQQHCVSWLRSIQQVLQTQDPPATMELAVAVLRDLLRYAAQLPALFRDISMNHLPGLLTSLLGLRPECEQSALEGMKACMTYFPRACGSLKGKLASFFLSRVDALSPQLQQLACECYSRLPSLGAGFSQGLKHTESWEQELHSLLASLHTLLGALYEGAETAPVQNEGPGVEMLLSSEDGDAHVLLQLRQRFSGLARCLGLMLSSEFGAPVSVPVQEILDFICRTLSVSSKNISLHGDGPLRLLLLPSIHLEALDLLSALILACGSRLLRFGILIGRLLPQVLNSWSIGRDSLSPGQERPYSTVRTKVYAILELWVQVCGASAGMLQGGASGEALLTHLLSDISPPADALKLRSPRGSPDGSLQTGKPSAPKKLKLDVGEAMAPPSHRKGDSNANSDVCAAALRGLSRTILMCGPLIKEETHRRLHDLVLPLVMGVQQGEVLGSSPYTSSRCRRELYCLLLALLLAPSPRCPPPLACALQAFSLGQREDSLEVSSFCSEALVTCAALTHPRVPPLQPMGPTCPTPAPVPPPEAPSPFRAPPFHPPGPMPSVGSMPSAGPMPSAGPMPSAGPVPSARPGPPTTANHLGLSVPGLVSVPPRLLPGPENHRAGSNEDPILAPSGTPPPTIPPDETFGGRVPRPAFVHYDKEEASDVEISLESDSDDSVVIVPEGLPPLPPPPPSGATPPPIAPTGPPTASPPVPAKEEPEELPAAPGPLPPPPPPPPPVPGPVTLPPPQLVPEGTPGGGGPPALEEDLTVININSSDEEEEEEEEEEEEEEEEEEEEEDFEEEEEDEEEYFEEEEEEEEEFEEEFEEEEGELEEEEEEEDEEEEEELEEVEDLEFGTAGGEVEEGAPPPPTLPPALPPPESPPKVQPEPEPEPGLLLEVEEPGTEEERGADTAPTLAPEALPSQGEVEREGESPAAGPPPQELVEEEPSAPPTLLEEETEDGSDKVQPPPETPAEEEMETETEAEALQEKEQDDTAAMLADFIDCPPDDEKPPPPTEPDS
UniProt Q9H4L4: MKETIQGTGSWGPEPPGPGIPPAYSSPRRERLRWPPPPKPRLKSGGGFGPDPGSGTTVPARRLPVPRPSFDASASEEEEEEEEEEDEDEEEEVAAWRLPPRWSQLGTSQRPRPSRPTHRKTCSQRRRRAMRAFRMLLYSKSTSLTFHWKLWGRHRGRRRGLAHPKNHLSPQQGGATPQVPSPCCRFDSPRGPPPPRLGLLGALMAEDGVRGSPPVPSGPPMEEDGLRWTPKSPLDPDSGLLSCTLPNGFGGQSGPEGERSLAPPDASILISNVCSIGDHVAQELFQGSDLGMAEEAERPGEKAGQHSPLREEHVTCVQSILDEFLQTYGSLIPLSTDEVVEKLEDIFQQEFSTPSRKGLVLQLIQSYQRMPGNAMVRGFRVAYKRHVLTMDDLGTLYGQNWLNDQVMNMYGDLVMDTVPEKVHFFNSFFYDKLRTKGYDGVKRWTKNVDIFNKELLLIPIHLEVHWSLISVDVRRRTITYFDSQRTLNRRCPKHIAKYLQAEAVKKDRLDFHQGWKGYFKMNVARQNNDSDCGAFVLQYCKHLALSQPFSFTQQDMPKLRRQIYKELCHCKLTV

Legend:
[1] = target: T1, 3xFlag-WDR18 (human (endogenous in HEK293FT)) (UniProt Q9BV38); test: co-IP
T1 sequence: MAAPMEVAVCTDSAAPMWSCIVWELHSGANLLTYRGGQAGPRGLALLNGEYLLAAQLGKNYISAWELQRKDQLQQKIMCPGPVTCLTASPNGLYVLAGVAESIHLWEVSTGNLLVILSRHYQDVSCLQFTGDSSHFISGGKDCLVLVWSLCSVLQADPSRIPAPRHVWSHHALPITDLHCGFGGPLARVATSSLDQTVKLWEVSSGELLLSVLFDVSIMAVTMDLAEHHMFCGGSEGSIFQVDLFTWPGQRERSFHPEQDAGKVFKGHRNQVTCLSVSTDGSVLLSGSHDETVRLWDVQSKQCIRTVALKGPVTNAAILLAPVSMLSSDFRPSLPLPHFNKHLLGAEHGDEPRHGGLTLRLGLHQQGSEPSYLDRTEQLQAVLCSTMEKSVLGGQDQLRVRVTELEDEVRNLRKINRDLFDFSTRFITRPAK

[2] = target: T2, 3xFlag-NOL9 (human (endogenous in HEK293FT)) (UniProt Q5SY16); test: co-IP
T2 sequence: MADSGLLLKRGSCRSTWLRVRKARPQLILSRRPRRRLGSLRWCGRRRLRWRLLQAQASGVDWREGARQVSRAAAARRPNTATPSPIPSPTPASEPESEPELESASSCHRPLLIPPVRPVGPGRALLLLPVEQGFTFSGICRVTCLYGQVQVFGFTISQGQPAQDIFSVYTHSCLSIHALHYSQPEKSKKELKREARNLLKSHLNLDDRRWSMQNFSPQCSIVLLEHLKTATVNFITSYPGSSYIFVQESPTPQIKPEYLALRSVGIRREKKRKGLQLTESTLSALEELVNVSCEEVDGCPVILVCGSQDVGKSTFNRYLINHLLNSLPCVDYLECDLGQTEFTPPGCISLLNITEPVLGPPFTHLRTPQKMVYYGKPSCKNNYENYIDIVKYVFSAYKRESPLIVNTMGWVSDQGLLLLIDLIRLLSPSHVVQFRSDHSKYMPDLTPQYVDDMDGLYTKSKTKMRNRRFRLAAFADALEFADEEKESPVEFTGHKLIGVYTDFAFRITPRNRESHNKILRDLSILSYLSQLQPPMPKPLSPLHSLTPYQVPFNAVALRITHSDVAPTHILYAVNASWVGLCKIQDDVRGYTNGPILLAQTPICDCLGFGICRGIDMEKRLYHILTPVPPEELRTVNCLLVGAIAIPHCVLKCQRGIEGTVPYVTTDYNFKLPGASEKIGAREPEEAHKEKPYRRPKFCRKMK

[3] = target: CBX3 (yeast two-hybrid fusion) (human) (UniProt Q13185); test: two-hybrid
[4] = target: CBX5 (yeast two-hybrid fusion) (human) (UniProt P45973); test: two-hybrid
[5] = target: T3, PCGF3 (yeast two-hybrid fusion) (human) (UniProt Q3KNV8); test: two-hybrid
T3 sequence: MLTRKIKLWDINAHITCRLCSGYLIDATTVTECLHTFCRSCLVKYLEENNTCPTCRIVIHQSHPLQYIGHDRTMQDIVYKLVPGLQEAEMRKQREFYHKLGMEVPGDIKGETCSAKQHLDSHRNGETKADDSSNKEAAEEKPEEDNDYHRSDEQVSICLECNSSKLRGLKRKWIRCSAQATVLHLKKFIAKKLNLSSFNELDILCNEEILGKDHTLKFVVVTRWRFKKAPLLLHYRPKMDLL

[6] = target: CBX1 (yeast two-hybrid fusion) (human) (UniProt P83916); test: two-hybrid
[7] = target: T4, CBX8 (yeast two-hybrid fusion) (human) (UniProt Q9HC52); test: two-hybrid
T4 sequence: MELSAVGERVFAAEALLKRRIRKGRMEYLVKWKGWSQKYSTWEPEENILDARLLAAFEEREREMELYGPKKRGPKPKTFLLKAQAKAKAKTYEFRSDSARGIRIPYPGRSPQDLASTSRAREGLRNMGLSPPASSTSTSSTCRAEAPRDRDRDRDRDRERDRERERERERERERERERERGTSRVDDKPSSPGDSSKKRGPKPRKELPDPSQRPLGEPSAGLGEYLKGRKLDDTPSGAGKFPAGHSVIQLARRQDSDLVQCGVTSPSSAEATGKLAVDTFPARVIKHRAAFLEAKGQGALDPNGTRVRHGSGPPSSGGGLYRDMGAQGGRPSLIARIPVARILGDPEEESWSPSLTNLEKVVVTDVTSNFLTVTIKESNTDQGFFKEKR

[8] = target: CBX7 (yeast two-hybrid fusion) (human) (UniProt O95931); test: two-hybrid
[9] = target: GST-RING1B amino acids 1-100 (human) (UniProt Q99496); test: pull-down
[10] = target: GST-RING1B amino acids 101-200 (human) (UniProt Q99496); test: pull-down
[11] = target: GST-EED amino acids 142-200 (human) (UniProt O75530); test: pull-down

Row | Molecule | binding [3] | binding [4] | binding [5] | binding [6] | further results
1 | RING1B (from UniProt Q99496 1-336) | – | – | – | – | binding [1]: binds; binding [2]: binds
2 | PELP1 (yeast two-hybrid fusion) (from UniProt Q8IZL8 1-1130) | no binding | no binding | binds | no binding | –
3 | SENP3 (yeast two-hybrid fusion) (from UniProt Q9H4L4 1-574) | no binding | no binding | binds | no binding | binding [7]: binds; binding [8]: binds
4 | WDR18 (yeast two-hybrid fusion) (protein, UniProt Q9BV38 1-432) MAAPMEVAVCTDSAAPMWSCIVWELHSGANLLTYRGGQAGPRGLALLNGEYLLAAQLGKNYISAWELQRKDQLQQKIMCPGPVTCLTASPNGLYVLAGVAESIHLWEVSTGNLLVILSRHYQDVSCLQFTGDSSHFISGGKDCLVLVWSLCSVLQADPSRIPAPRHVWSHHALPITDLHCGFGGPLARVATSSLDQTVKLWEVSSGELLLSVLFDVSIMAVTMDLAEHHMFCGGSEGSIFQVDLFTWPGQRERSFHPEQDAGKVFKGHRNQVTCLSVSTDGSVLLSGSHDETVRLWDVQSKQCIRTVALKGPVTNAAILLAPVSMLSSDFRPSLPLPHFNKHLLGAEHGDEPRHGGLTLRLGLHQQGSEPSYLDRTEQLQAVLCSTMEKSVLGGQDQLRVRVTELEDEVRNLRKINRDLFDFSTRFITRPAK | no binding | no binding | – | no binding | –
5 | TEX10 (bacterially expressed and purified) (protein, UniProt Q9NXF1 1-929) MTKKRKRQHDFQKVKLKVGKKKPKLQNATPTNFKTKTIHLPEQLKEDGTLPTNNRKLNIKDLLSQMHHYNAGVKQSALLGLKDLLSQYPFIIDAHLSNILSEVTAVFTDKDANVRLAAVQLLQFLAPKIRAEQISPFFPLVSAHLSSAMTHITEGIQEDSLKVLDILLEQYPALITGRSSILLKNFVELISHQQLSKGLINRDRSQSWILSVNPNRRLTSQQWRLKVLVRLSKFLQALADGSSRLRESEGLQEQKENPHATSNSIFINWKEHANDQQHIQVYENGGSQPNVSSQFRLRYLVGGLSGVDEGLSSTENLKGFIEIIIPLLIECWVEAVPPQLATPVGNGIEREPLQVMQQVLNIISLLWKLSKQQDETHKLESWLRKNYLIDFKHHFMSRFPYVLKEITKHKRKEPNKSIKHCTVLSNNIDHLLLNLTLSDIMVSLANASTLQKDCSWIEMIRKFVTETLEDGSRLNSKQLNRLLGVSWRLMQIQPNREDTETLIKAVYTLYQQRGLILPVRTLLLKFFSKIYQTEELRSCRFRYRSKVLSRWLAGLPLQLAHLGSRNPELSTQLIDIIHTAAARANKELLKSLQATALRIYDPQEGAVVVLPADSQQRLVQLVYFLPSLPADLLSRLSRCCIMGRLSSSLAAMLIGILHMRSSFSGWKYSAKDWLMSDVDYFSFLFSTLTGFSKEELTWLQSLRGVPHVIQTQLSPVLLYLTDLDQFLHHWDVTEAVFHSLLVIPARSQNFDILQSAISKHLVGLTVIPDSTAGCVFGVICKLLDHTCVVSETLLPFLASCCYSLLYFLLTIEKGEAEHLRKRDKLWGVCVSILALLPRVLRLMLQSLRVNRVGPEELPVVGQLLRLLLQHAPLRTHMLTNAILVQQIIKNITTLKSGSVQEQWLTDLHYCFNVYITGHPQGPSALATVY | – | – | – | – | binding [9]: binds; binding [10]: binds; binding [11]: binds
6 | NOL9 (yeast two-hybrid fusion) (protein, UniProt Q5SY16 1-702) MADSGLLLKRGSCRSTWLRVRKARPQLILSRRPRRRLGSLRWCGRRRLRWRLLQAQASGVDWREGARQVSRAAAARRPNTATPSPIPSPTPASEPESEPELESASSCHRPLLIPPVRPVGPGRALLLLPVEQGFTFSGICRVTCLYGQVQVFGFTISQGQPAQDIFSVYTHSCLSIHALHYSQPEKSKKELKREARNLLKSHLNLDDRRWSMQNFSPQCSIVLLEHLKTATVNFITSYPGSSYIFVQESPTPQIKPEYLALRSVGIRREKKRKGLQLTESTLSALEELVNVSCEEVDGCPVILVCGSQDVGKSTFNRYLINHLLNSLPCVDYLECDLGQTEFTPPGCISLLNITEPVLGPPFTHLRTPQKMVYYGKPSCKNNYENYIDIVKYVFSAYKRESPLIVNTMGWVSDQGLLLLIDLIRLLSPSHVVQFRSDHSKYMPDLTPQYVDDMDGLYTKSKTKMRNRRFRLAAFADALEFADEEKESPVEFTGHKLIGVYTDFAFRITPRNRESHNKILRDLSILSYLSQLQPPMPKPLSPLHSLTPYQVPFNAVALRITHSDVAPTHILYAVNASWVGLCKIQDDVRGYTNGPILLAQTPICDCLGFGICRGIDMEKRLYHILTPVPPEELRTVNCLLVGAIAIPHCVLKCQRGIEGTVPYVTTDYNFKLPGASEKIGAREPEEAHKEKPYRRPKFCRKMK | no binding | no binding | – | no binding | –
